Patent publication US20070054899A1 (priority 2003, published 2007)

target: T1, aromatase (microsomes from the human placenta) (Homo sapiens, UniProt P11511); experiment: Aromatase inhibition in vitro, tritiated water method, human placenta microsomes; assay type: biochemical; conditions: value marked (h)
T1 construct: using microsomes from the human placenta as source of the enzyme; from tissue; host or cells: human placenta microsomes
T1 sequence (P11511 1-503): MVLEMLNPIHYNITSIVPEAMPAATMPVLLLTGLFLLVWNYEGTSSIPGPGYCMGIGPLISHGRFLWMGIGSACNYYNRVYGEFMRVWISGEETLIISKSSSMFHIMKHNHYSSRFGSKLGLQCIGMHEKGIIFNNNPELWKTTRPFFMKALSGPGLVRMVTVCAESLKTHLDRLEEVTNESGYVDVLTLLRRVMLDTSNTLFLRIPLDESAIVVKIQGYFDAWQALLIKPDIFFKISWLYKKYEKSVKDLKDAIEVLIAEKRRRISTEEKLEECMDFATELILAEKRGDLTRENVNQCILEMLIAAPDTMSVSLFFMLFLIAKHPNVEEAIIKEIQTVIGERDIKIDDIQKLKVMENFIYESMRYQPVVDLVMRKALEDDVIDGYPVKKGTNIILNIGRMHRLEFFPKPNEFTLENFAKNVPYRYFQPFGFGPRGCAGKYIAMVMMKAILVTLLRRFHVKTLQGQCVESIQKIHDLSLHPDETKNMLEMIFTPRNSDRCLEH

Point of comparison: `Cn1c(=O)sc2cc(C(c3ccccc3)n3ccnc3)ccc21` (racemic) [(E1)PCH28], IC50 24.4 nM. Against it:
- Cn1c(=O)sc2cc(C(c3ccccc3)n3ccnc3)ccc21 (racemic) [(+/−)PCH28, 6-[1H-Imidazol-1-yl(phenyl)methyl]-3-methyl-1,3-benzothiazol-2(3H)-one] — 2-fold lower, 12.1 nM
- Cn1c(=O)sc2cc(C(c3ccccc3)n3ccnc3)ccc21 (racemic) [(E2) PCH28] — within 1.5-fold, 26.4 nM
